These are yes or no findings as the source states them, for the method shown. In cells and extracts the contact can be indirect. A yes stands for co-enrichment or nearness to the bait. Other partners may have been found.

By UniProt entry, the sequences of proteins in these tests, tags left out. Where a name states a change or a piece, a line headed by the entry shows the natural chain unless it says otherwise.
UniProt Q9H1Y0: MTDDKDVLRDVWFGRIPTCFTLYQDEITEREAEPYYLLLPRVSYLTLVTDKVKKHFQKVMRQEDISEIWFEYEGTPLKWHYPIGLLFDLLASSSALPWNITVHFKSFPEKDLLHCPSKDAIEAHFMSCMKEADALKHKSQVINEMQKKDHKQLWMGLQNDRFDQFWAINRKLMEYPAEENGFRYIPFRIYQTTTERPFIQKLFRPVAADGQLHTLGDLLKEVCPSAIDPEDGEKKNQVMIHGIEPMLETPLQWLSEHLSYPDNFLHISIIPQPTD

One experiment has as its target APEX2-ATG5-K130R (UniProt Q9H1Y0). The experiment can be described thus: proximity labelling; APEX2 proximity biotinylation in FlpIn-HeLa cells, 500 µM biotin-phenol, with or without 2 mM LLOMe for 30 min, 1 min 1 mM H2O2; streptavidin beads, LC-MS/MS in DIA mode.
Another experiment has as its target APEX2-ATG5-WT (UniProt Q9H1Y0). Described as above.

VPS26A (from UniProt O75436 1-327): the binding entry with APEX2-ATG5-K130R and with APEX2-ATG5-WT was “binds” each time.

(Values after publication PMC11706607.)
